From PMC5391209
No constants are given. Whether binding was seen depends on the method and setting. Binding seen in cells or lysates may run through a third protein. Some binding calls cover weakened binding; strength is not graded here. Tags and fused reporters may be left off the sequences shown.

By UniProt entry, the sequences of proteins in these tests, tags left out.
UniProt P42337: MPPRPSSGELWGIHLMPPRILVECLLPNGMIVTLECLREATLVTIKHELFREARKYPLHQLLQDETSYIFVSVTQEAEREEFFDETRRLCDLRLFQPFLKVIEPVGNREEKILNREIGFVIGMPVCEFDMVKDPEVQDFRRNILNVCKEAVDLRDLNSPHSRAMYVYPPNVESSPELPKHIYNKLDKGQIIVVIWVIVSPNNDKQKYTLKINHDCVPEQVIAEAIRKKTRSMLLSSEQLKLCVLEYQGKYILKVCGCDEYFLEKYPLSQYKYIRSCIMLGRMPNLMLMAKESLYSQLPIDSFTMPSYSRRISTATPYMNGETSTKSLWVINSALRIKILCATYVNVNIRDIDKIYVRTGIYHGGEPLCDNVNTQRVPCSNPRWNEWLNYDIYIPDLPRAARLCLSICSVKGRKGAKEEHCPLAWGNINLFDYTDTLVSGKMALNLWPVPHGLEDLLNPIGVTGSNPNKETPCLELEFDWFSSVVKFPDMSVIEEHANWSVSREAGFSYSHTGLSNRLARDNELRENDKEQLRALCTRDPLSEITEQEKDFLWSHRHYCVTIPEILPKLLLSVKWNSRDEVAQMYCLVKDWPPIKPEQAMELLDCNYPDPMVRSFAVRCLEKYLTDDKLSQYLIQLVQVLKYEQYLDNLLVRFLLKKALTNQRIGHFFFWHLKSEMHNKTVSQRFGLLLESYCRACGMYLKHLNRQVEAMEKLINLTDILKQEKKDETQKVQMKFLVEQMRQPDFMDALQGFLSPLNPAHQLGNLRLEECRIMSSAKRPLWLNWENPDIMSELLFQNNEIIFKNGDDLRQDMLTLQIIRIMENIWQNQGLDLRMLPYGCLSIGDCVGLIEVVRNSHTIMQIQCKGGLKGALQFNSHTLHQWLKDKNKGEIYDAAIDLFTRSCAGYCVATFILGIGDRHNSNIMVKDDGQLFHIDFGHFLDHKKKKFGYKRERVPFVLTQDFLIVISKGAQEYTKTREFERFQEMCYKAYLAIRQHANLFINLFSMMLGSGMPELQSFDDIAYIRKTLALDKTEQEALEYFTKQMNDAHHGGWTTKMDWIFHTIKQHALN

Biological target: T1, FLAG-tagged R-Ras2 4KR (human) (UniProt P62070)
T1 sequence: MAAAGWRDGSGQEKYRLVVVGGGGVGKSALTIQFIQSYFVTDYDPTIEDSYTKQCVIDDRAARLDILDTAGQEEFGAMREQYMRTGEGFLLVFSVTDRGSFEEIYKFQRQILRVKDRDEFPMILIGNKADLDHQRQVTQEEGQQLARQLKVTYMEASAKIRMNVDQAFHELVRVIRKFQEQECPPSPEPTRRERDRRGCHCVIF
Test: co-IP; FLAG-tagged R-Ras2 WT or 4KR overexpressed in Sirt6 WT and KO MEFs, R-Ras2 immunoprecipitated, p110α examined by blot

For “p110α, one isoform of the catalytic subunit of PI3K (from UniProt P42337 1-1068) (enzyme)”, the binding was “binds”.
